Laboratory results reported in patent US20100130621A1, “USE OF HYDROXYTYROSOL AS ANTI-AGING AGENT” (DSM IP ASSETS B.V., priority 2007, published 2010).
For at least one compound, name, drawing or mass did not settle the structure.

Assays:
Type in all cases: cell-based, murine
[1] = system: NADH—CoQ oxidoreductase (Complex I); assay: Activity of mitochondrial complex I in treated adipocytes; conditions: 48 hrs, 0.1 μM
mitochondrial DNA = assay: Measurement of mitochondrial DNA by quantitative PCR (D-loop:18SRNA ratio); conditions: 3T3-L1 adipocytes, 48 hrs, 1.0 μM
[2] = system: CoQ-cytochrome c reductase (complex III); assay: Activity of mitochondrial complex III in treated adipocytes; conditions: 48 hrs, 0.1 μM-10 μM
[3] = system: succinate-CoQ oxidoreductase (complex II); assay: Activity of mitochondrial complex II in treated adipocytes; conditions: 48 hrs, 1.0 μM
3T3-L1 adipocytes = assay: Measurement of respiration (oxygen consumption) in adipocytes, BD Oxygen Biosensor System; conditions: 1.0-5.0 μM

OCCc1ccc(O)c(O)c1 [hydroxytyrosol, 3,4-dihydroxyphenylethanol]
activity of mitochondrial complex I relative to control [1]: significant increase
ratio of mt D-loop/18SRNA (mitochondrial DNA): significantly increased
activity of mitochondrial complex III [2]: significant increase
activity of mitochondrial complex II relative to control [3]: significant increase
basal rate of oxygen consumption (3T3-L1 adipocytes): significantly increased
